In assay [1] the target is T1, GST_CT_p130Cas (UniProt Q61140).
T1 sequence: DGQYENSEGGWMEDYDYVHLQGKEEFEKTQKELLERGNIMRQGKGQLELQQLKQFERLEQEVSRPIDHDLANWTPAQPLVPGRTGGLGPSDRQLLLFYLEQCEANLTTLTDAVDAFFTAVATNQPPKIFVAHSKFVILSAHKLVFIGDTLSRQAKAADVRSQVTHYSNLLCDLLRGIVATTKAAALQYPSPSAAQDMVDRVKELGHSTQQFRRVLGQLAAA
The experiment in a line: far-Western, overlay or dot blot; 1 μl of GST-tagged p130Cas proteins spotted on nitrocellulose; probed with MBP-tagged ErbB2 protein (1 μg/ml) in Interaction Buffer (50 mM Tris-HCl pH7.4, 150 mM NaCl, 1%Triton-X100) at 4 °C overnight; detected with anti-MBP; both purified.

The target in assay [2] is T2, GST_YXXP_p130Cas (UniProt Q61140).
T2 sequence: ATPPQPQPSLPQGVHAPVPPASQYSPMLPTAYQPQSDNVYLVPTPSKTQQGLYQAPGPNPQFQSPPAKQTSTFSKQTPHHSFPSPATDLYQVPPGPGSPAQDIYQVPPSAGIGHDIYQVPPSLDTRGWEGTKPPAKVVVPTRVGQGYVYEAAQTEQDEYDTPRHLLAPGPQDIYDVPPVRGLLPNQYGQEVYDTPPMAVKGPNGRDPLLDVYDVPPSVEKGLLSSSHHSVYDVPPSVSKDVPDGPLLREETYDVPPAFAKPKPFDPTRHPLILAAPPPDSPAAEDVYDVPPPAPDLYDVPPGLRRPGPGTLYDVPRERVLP
Described as above.

Assay [3] addresses MBP_longPPII_ErbB2 (human (by the printed accession P04626-1)) (UniProt P04626). The experiment in a line: co-IP; in vitro binding assay: GST-tagged p130Cas and MBP-tagged ErbB2 purified proteins mixed in Interaction Buffer with 1% BSA overnight at 4 °C; immunoprecipitated with anti-MBP and proteinA Sepharose; blot anti-GST; both purified.
The target of assay [4] is MBP_shortPPII_ErbB2 (human (by the printed accession P04626-1)) (UniProt P04626). Described as above.

This is an account of results in PMC6395809 (Scientific Reports, 2019).

No constants are given. Whether binding was seen depends on the method and setting. Tags and fused reporters may be left off the sequences shown.

Take “MBP_shortPPII_ErbB2 (from UniProt P04626-1 1103-1194) (domain or fragment)”: the binding result in assay [1] and in assay [2] was “no binding (tested: 1 μg/ml)” each time.

B1: GST_YXXP_p130Cas (domain or fragment, UniProt Q61140 80-400)
chain: T2 sequence
For the molecule B1, the binding result in assay [3] and in assay [4] was “no binding” each time.

B2: GST_CT_p130Cas (domain or fragment, UniProt Q61140 654-874)
chain: T1 sequence
Regarding B2, the binding result in assay [3] and in assay [4] was “no binding” throughout.
